This assay addresses T1, RNA polymerase α subunit (M. pneumoniae (endogenous in M129-B7 cells)) (UniProt Q50295).
T1 sequence: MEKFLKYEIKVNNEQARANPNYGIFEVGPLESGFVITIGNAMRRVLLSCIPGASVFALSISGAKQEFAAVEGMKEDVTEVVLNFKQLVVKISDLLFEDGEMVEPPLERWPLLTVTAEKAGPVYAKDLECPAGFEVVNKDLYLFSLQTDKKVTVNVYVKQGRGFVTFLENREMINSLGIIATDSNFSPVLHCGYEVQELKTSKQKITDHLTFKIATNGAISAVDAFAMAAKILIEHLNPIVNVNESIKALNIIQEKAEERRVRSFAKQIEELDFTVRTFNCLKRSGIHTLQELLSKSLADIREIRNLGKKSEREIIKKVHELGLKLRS
Briefly: cryo-EM structure.

No constants are given. Whether binding was seen depends on the method and setting. Some results given as binding are weak or reduced against the parent protein; the word gives no strength.

B1: NusA (protein, UniProt P75591 1-540)
chain: MNNQSNHFTNPLLQLIKNVAETKNLAIDDVVLCLKTALAQTYKKHLNYVNVEVNIDFNKGLMQIEQLFDVVDDNNEDYDDFLEMPLSEAKKLNPNLEVGGVLRKPVSLKDIKGDLISKMVLLFNQKINETAFKTVMSDFINEVGQVIEARVEDIDTNKDGGLKGYIVNLETTKGYMPKRELSKGEKLDIGKKYLFVIKEIQKQSSMWPITLSRSDSRLLEFLLNSNTPEIANGTIEIKKMERSPGTKSKVAVISKDPVVDPIAAILGPKGERIRGISEEFNGEIIDIVIWNEDKLKFLVNAVLPAEVVGYNILQDDERDTSIEIVVPANQIANVFGFKGINIRLISNLTGWSSVDVYTEKDAAEQGIEFTRVNFQPQGIFGIKKRRDKISNNPRNNNQQLASDKVFYTSKANVVDDEIIVDLAKQAEAKRVKQIKQEATKPELQLQQELNLEATPKVAAPTPTPAPQPTPAPTKVEPVPPPVSVTPKPIPKVNKPKPVVKPKSVFSITVEADDSKTKPEKSSAKTNTPQTKQTFDNFDDL
On to B1, for which the binding result is recorded as “binds”.

(Values after article doi:10.1101/2025.10.13.682074.)
